Data from article doi:10.1101/2020.06.04.134924.
These are yes or no findings as the source states them, for the method shown. In cells and extracts the contact can be indirect. Binding can be weak; no strength is given. Where a sequence is shown, tags or fusion partners need not be part of it.

Target: T1, Recombinant GST-hSLP4A (human) (UniProt Q96C24)
T1 sequence: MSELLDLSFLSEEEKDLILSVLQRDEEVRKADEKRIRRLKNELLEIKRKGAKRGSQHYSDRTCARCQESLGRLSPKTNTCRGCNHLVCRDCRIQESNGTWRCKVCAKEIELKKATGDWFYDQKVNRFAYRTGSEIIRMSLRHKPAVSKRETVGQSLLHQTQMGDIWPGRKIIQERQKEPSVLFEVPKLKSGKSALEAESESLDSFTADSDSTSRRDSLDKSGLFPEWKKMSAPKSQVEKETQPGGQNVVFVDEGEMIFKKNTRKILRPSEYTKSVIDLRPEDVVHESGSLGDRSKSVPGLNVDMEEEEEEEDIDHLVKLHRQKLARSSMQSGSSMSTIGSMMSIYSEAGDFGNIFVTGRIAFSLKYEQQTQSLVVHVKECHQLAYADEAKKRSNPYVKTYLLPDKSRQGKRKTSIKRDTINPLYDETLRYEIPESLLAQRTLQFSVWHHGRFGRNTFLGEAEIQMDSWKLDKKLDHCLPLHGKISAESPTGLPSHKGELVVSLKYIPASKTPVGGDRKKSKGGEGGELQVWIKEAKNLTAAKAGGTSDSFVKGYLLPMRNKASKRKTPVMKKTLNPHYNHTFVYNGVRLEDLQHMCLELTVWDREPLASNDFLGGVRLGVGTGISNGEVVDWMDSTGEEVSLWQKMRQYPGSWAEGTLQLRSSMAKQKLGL
Experiment: pull-down

binding: binds
Substance: endogenous GTP-bound RAB8
